{"source": "the supplement of paper PMC8728848", "binders": {"B1": {"name": "MtEccB1 (Mycobacterium tuberculosis H37Rv), O69734 (protein)", "chain": "MGLRLTTKVQVSGWRFLLRRLEHAIVRRDTRMFDDPLQFYSRSIALGIVVAVLILAGAALLAYFKPQGKLGGTSLFTDRATNQLYVLLSGQLHPVYNLTSARLVLGNPANPATVKSSELSKLPMGQTVGIPGAPYATPVSAGSTSIWTLCDTVARADSTSPVVQTAVIAMPLEIDASIDPLQSHEAVLVSYQGETWIVTTKGRHAIDLTDRALTSSMGIPVTARPTPISEGMFNALPDMGPWQLPPIPAAGAPNSLGLPDDLVIGSVFQIHTDKGPQYYVVLPDGIAQVNATTAAALRATQAHGLVAPPAMVPSLVVRIAERVYPSPLPDEPLKIVSRPQDPALCWSWQRSAGDQSPQSTVLSGRHLPISPSAMNMGIKQIHGTATVYLDGGKFVALQSPDPRYTESMYYIDPQGVRYGVPNAETAKSLGLSSPQNAPWEIVRLLVDGPVLSKDAALLEHDTLPADPSPRKVPAGASGAP"}}, "test_in_all_cases": "glycan array binding signal (z-score within array); higher = stronger binding", "conditions_in_all_cases": "glycan notation: IUPAC condensed, linker removed", "key": {"[1]": {"target": "Fuc(a1-2)Gal(b1-4)GlcNAc(b1-3)Gal(b1-4)GlcNAc(b1-2)Man(a1-3)[Fuc(a1-2)Gal(b1-4)GlcNAc(b1-3)Gal(b1-4)GlcNAc(b1-2)Man(a1-6)]Man(b1-4)GlcNAc(b1-4)GlcNAc", "procedure,_shortened": "(§1)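 Negative Z-scores can be read as non-binding. The Z-score is calculated within each array and then averaged across arrays of one protein sequence at different concentrations or buffers and across linkers. Arrays, 3228 in all, were curated from the Consortium for Functional Glycomics database and kept only where the protein sequence was available.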"}, "[2]": {"target": "Fuc(a1-2)Gal(b1-4)GlcNAc(b1-3)Gal(b1-4)GlcNAc(b1-3)Gal(b1-4)GlcNAc", "procedure,_shortened": "as §1"}, "[3]": {"target": "Fuc(a1-2)Gal(b1-4)GlcNAc(b1-3)GalNAc", "procedure,_shortened": "as §1"}, "[4]": {"target": "Fuc(a1-2)Gal(b1-4)GlcNAc(b1-3)[Fuc(a1-2)Gal(b1-4)GlcNAc(b1-6)]GalNAc", "procedure,_shortened": "as §1"}, "[5]": {"target": "Fuc(a1-2)Gal(b1-4)GlcNAc(b1-3)[Fuc(a1-3)[Gal(b1-4)]GlcNAc(b1-6)]Gal(b1-4)Glc", "procedure,_shortened": "as §1"}, "[6]": {"target": "Fuc(a1-2)Gal(b1-4)GlcNAc(b1-6)GalNAc", "procedure,_shortened": "as §1"}, "[7]": {"target": "Fuc(a1-2)Gal(b1-4)GlcNAc6S", "procedure,_shortened": "as §1"}, "[8]": {"target": "Fuc(a1-2)Gal(b1-4)[Fuc(a1-3)]GlcNAc", "procedure,_shortened": "as §1"}, "[9]": {"target": "Fuc(a1-2)Gal(b1-4)[Fuc(a1-3)]GlcNAc(b1-2)Man(a1-3)[Fuc(a1-2)Gal(b1-4)[Fuc(a1-3)]GlcNAc(b1-2)Man(a1-6)]Man(b1-4)GlcNAc(b1-4)[Fuc(a1-6)]GlcNAc", "procedure,_shortened": "as §1"}, "[10]": {"target": "Fuc(a1-2)Gal(b1-4)[Fuc(a1-3)]GlcNAc(b1-2)[Fuc(a1-2)Gal(b1-4)[Fuc(a1-3)]GlcNAc(b1-4)]Man(a1-3)[Fuc(a1-2)Gal(b1-4)[Fuc(a1-3)]GlcNAc(b1-2)Man(a1-6)]Man(b1-4)GlcNAc(b1-4)GlcNAc", "procedure,_shortened": "as §1"}, "[11]": {"target": "Fuc(a1-2)Gal(b1-4)[Fuc(a1-3)]GlcNAc(b1-3)Gal(b1-4)[Fuc(a1-3)]GlcNAc", "procedure,_shortened": "as §1"}, "[12]": {"target": "Fuc(a1-2)Gal(b1-4)[Fuc(a1-3)]GlcNAc(b1-3)Gal(b1-4)[Fuc(a1-3)]GlcNAc(b1-3)Gal(b1-4)[Fuc(a1-3)]GlcNAc", "procedure,_shortened": "as §1"}, "[13]": {"target": "Fuc(a1-2)Gal(b1-4)[Fuc(a1-3)]GlcNAc(b1-3)GalNAc", "procedure,_shortened": "as §1"}, "[14]": {"target": "Fuc(a1-2)Gal(b1-4)[Fuc(a1-3)]GlcNAc(b1-3)[Neu5Ac(a2-6)Gal(b1-4)GlcNAc(b1-6)]Gal(b1-4)Glc", "procedure,_shortened": "as §1"}, "[15]": {"target": "Fuc(a1-2)Gal3S(b1-4)GlcNAc", "procedure,_shortened": "as §1"}, "[16]": {"target": "Fuc(a1-2)Gal6S(b1-3)GlcNAc", "procedure,_shortened": "as §1"}, "[17]": {"target": "Fuc(a1-2)Gal6S(b1-3)GlcNAc6S", "procedure,_shortened": "as §1"}, "Fuc(a1-2)Gal6S(b1-4)Glc": {"target": "Fuc(a1-2)Gal6S(b1-4)Glc", "procedure,_shortened": "as §1"}, "[18]": {"target": "Fuc(a1-2)Gal6S(b1-4)Glc6S", "procedure,_shortened": "as §1"}, "Fuc(a1-2)[Gal(a1-3)]Gal": {"target": "Fuc(a1-2)[Gal(a1-3)]Gal", "procedure,_shortened": "as §1"}, "[19]": {"target": "Fuc(a1-2)[Gal(a1-3)]Gal(b1-3)GalNAc", "procedure,_shortened": "as §1"}, "[20]": {"target": "Fuc(a1-2)[Gal(a1-3)]Gal(b1-3)GalNAc(b1-3)Gal(a1-4)Gal(b1-4)Glc", "procedure,_shortened": "as §1"}, "[21]": {"target": "Fuc(a1-2)[Gal(a1-3)]Gal(b1-3)GlcNAc", "procedure,_shortened": "as §1"}, "[22]": {"target": "Fuc(a1-2)[Gal(a1-3)]Gal(b1-3)GlcNAc(b1-2)Man(a1-3)[Fuc(a1-2)[Gal(a1-3)]Gal(b1-3)GlcNAc(b1-2)Man(a1-6)]Man(b1-4)GlcNAc(b1-4)GlcNAc", "procedure,_shortened": "as §1"}, "[23]": {"target": "Fuc(a1-2)[Gal(a1-3)]Gal(b1-3)GlcNAc(b1-2)Man(a1-3)[Fuc(a1-2)[Gal(a1-3)]Gal(b1-3)GlcNAc(b1-2)Man(a1-6)]Man(b1-4)GlcNAc(b1-4)[Fuc(a1-6)]GlcNAc", "procedure,_shortened": "as §1"}, "[24]": {"target": "Fuc(a1-2)[Gal(a1-3)]Gal(b1-3)GlcNAc(b1-3)GalNAc", "procedure,_shortened": "as §1"}, "[25]": {"target": "Fuc(a1-2)[Gal(a1-3)]Gal(b1-3)GlcNAc(b1-6)GalNAc", "procedure,_shortened": "as §1"}, "[26]": {"target": "Fuc(a1-2)[Gal(a1-3)]Gal(b1-4)Glc", "procedure,_shortened": "as §1"}, "[27]": {"target": "Fuc(a1-2)[Gal(a1-3)]Gal(b1-4)GlcNAc", "procedure,_shortened": "as §1"}, "[28]": {"target": "Fuc(a1-2)[Gal(a1-3)]Gal(b1-4)GlcNAc(b1-2)Man", "procedure,_shortened": "as §1"}}, "note": "Some of the results follow."}
{"binder": "B1", "values": [{"measurement": "glycan array binding signal (z-score)", "setting": "[1]", "result": 0.811}, {"measurement": "glycan array binding signal (z-score)", "setting": "[2]", "result": -0.074}, {"measurement": "glycan array binding signal (z-score)", "setting": "[3]", "result": 1.3}, {"measurement": "glycan array binding signal (z-score)", "setting": "[4]", "result": -0.809}, {"measurement": "glycan array binding signal (z-score)", "setting": "[5]", "result": -0.648}, {"measurement": "glycan array binding signal (z-score)", "setting": "[6]", "result": -0.427}, {"measurement": "glycan array binding signal (z-score)", "setting": "[7]", "result": -0.449}, {"measurement": "glycan array binding signal (z-score)", "setting": "[8]", "result": -0.615}, {"measurement": "glycan array binding signal (z-score)", "setting": "[9]", "result": 1.44}, {"measurement": "glycan array binding signal (z-score)", "setting": "[10]", "result": -0.781}, {"measurement": "glycan array binding signal (z-score)", "setting": "[11]", "result": 0.129}, {"measurement": "glycan array binding signal (z-score)", "setting": "[12]", "result": -0.064}, {"measurement": "glycan array binding signal (z-score)", "setting": "[13]", "result": -0.518}, {"measurement": "glycan array binding signal (z-score)", "setting": "[14]", "result": -0.907}, {"measurement": "glycan array binding signal (z-score)", "setting": "[15]", "result": -1.19}, {"measurement": "glycan array binding signal (z-score)", "setting": "[16]", "result": -1.26}, {"measurement": "glycan array binding signal (z-score)", "setting": "[17]", "result": 0.05}, {"measurement": "glycan array binding signal (z-score)", "setting": "Fuc(a1-2)Gal6S(b1-4)Glc", "result": -1.2}, {"measurement": "glycan array binding signal (z-score)", "setting": "[18]", "result": -0.258}, {"measurement": "glycan array binding signal (z-score)", "setting": "Fuc(a1-2)[Gal(a1-3)]Gal", "result": -0.098}, {"measurement": "glycan array binding signal (z-score)", "setting": "[19]", "result": 0.697}, {"measurement": "glycan array binding signal (z-score)", "setting": "[20]", "result": 0.182}, {"measurement": "glycan array binding signal (z-score)", "setting": "[21]", "result": -1.22}, {"measurement": "glycan array binding signal (z-score)", "setting": "[22]", "result": -0.315}, {"measurement": "glycan array binding signal (z-score)", "setting": "[23]", "result": -2.15}, {"measurement": "glycan array binding signal (z-score)", "setting": "[24]", "result": 0.379}, {"measurement": "glycan array binding signal (z-score)", "setting": "[25]", "result": 0.385}, {"measurement": "glycan array binding signal (z-score)", "setting": "[26]", "result": 0.151}, {"measurement": "glycan array binding signal (z-score)", "setting": "[27]", "result": -0.401}, {"measurement": "glycan array binding signal (z-score)", "setting": "[28]", "result": -1.29}]}
